In patent publication US20110144038A1 (FRESENIUS MEDICAL CARE DEUTSCHLAND G M B H, published 2011) one finds binding data, which are given here for seven substances.

Sequences of proteins named here, by UniProt entry; tags and fusion partners are left off. A change or cut given only in a name is not applied to a line headed by its entry.
UniProt P29965: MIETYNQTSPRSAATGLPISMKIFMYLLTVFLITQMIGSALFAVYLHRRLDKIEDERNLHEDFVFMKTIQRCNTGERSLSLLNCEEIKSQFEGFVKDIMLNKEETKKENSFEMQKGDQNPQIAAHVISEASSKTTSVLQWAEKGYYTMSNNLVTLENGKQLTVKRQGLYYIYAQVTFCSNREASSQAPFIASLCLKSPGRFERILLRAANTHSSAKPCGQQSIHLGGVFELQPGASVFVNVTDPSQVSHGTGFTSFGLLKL
UniProt P69168: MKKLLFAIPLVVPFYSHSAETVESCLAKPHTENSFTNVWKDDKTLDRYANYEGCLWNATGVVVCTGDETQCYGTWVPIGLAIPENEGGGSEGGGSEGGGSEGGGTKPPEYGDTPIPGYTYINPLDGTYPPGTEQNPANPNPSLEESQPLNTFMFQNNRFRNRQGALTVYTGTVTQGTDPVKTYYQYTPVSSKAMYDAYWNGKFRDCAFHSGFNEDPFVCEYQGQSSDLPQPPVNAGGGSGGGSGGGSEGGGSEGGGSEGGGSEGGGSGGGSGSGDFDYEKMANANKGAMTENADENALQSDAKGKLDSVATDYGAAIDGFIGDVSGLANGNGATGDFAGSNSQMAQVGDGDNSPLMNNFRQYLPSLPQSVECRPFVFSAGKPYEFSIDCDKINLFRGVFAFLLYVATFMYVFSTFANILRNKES

Assay [1] has as its target human CD154 expressed on the cell surface of J558L cells (murine myeloma cell line transfected with human CD154) (human) (UniProt P29965). Description: flow cytometry, phage (10^11 cfu) on J558L cells, anti-M13 antibody.
Assay [2] shares this target. Description: flow cytometry, phage on J558L cells, anti-M13 antibody. A general note: A flow cytometer gives signals particle by particle.

No constants are given. Whether binding was seen depends on the method and setting. Some entries that bind do so weakly or less than the wild type.

As for “phage clone 4.10 (from UniProt P69168 19-424)”, the binding entry in assay [1] and in assay [2] was “binds” each time.

Regarding “phage clone 4.2 = 4.3 (from UniProt P69168 19-424)”, the binding entry in assay [1] and in assay [2] was “binds” in each case.

Take “phage clone 4.8 (from UniProt P69168 19-424)”: the binding result in assay [1] and in assay [2] was “binds” throughout.

With “phage clone 4.11 (from UniProt P69168 19-424)”, the binding entry in assay [1] and in assay [2] was “binds” each time.

“phage clone 4.7 = 4.12 (from UniProt P69168 19-424)”: the binding result in assay [1] and in assay [2] was “binds” each time.

Turning to “phage clone 4.4 (from UniProt P69168 19-424)”, the binding result in assay [1] and in assay [2] was “binds” throughout.

With “phage clone 4.6 (from UniProt P69168 19-424)”, the binding entry in assay [1] and in assay [2] was “binds” each time.
